According to PubChem BioAssay AID1508600 (Functional Genomics Laboratory (NCATS/FGL), 2020):
The campaign covered roughly 53,000 sequences. About 3,700 (7%) were called active.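 How the source made its calls: active means gene knockdowns whose robust z-score for IL-1 alpha signal is at least 2 or at most -2, so actives lie on both sides; inactive means the rest.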 The list shows a part of the results.

Test: Components of the Cytosolic LPS Sensing Pathway: Gene Identification via Genome-wide siRNA Screen;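 further: robust z of the log signal after scaling to non-targeting control siRNA wells of the plate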
Settings: RAW264.7 macrophages, IL-1a HTRF, actives lie on both sides, screened at 100 nM (by protocol), cells primed 5 h with Pam3CSK4 first
Method in brief: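 RAW264.7 mouse macrophages reverse-transfected with single siRNAs (100 nM final) for 48h, primed with Pam3CSK4 for 5 hours, then transfected with LipidA for 24 hour. Supernatant IL-1a read by HTRF; values normalized to negative-control median, log-transformed robust z-scores.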

Row | Sequence | z-score
1 | GCAACUUGACAUAUGACAGTT against Sh3d21 | inactive: -1.13
2 | GGUUUGGUGUACUUUUCAUTT against Akr1c6 | inactive: 1.52
3 | GGGAACAGGAGAAAACGGATT against Bnipl | inactive: 1.2
4 | GGAAAACAUAAGGCAGUCUTT against Atl2 | inactive: -0.324
5 | CCAGCUAUCUCAAAAUGAGTT against Sim1 | inactive: -0.944
6 | GGAACAAAGAGUUUAAGGATT against Olfr1415 | inactive: 0.379
7 | GCCGUUUAAAACUUGCUAUTT against Trpc6 | inactive: 1.47
8 | CCAUAAGUGCCCUCGAGAUTT against Krt39 | inactive: -1.08
9 | CAGCUGAGAUUGAUGGCCATT against Olfr313 | inactive: -0.6
10 | GGCUUUCGCUGGGCAAAAUTT against Uts2 | inactive: -0.691
11 | GGAAGAUUUCUUCAAACGCTT against Lhx4 | inactive: -0.167
12 | GGGUCAAAGGAAUAAAACATT against Slc22a5 | inactive: -0.2
13 | CCUAUUGUCUGAUAGCCCUTT against Ms4a7 | inactive: -1.07
14 | GCUGGAGAUCAUCCUUCAGTT against Rph3al | inactive: 0.742
15 | GGCUGUAUGGGCGAAUAACTT against Plxnd1 | inactive: -0.00226
16 | GGAGCUACACACAUAGGAATT against Clec2h | inactive: 0.891
17 | GGAAGUUGAGGCUUUGAAGTT against Bnip3l | inactive: 0.48
18 | GCUCUUGAAAUUUCACUCUTT against Ide | active: 2.1
19 | GCUUUUACCGUUACGUCUUTT against Uggt1 | active: 2.18
20 | GGGAUGUGGAAAGAAUCCATT against Ercc8 | inactive: -1.13
21 | GGUACAAGGUCAUCAUGAGTT against Olfr1341 | active: -2.85
22 | GCUUACUAAGGUGAUAAUGTT against Il17d | inactive: 0.0918

Row | Sequence | z-score
23 | GGAAGCAAAUGGUUUGUAATT against Srsf2 | inactive: 1.36
24 | GGCCUCUGUGGUGUUUAACTT against Omp | inactive: -0.277
25 | GCAGGAUUGCGUCCAUAUCTT against Mbd1 | inactive: -0.157
26 | GGUAUUACGUCAAAUGCCATT against Sec24a | inactive: -1.04
27 | GGUAAACUCUUGAACAGUATT against Rai1 | inactive: 0.737
28 | CUAGAUGCACAGAAUAGCATT against Prm1 | inactive: -1.83
29 | GGCUCUGAGAUUCGACUAGTT against P4hb | inactive: 0.461
30 | GGAUGAUAUGGCAUACUUUTT against Fam221a | inactive: 0.803
31 | GGGAUGACUUGGAGUCUCUTT against Csnk1d | inactive: -0.0473
32 | GGAUACAAGCCUUUUAACCTT against Sri | inactive: -0.0625
33 | UCACAGUCAUCAUUGUUUCTT against Olfr825 | active: -2.83
34 | GGAAAUCAGCUGAAUUACUTT against Dicer1 | inactive: 1.07
35 | GCAGAAUUGAAGCUGGAAUTT against Stag1 | active: 2.49
36 | GGCCACCAUCAAUUUAUAUTT against Ripply1 | inactive: -1.87
37 | GGCUUCAAACAUUUACUGGTT against Aggf1 | inactive: -0.21
38 | GGCUAUGUGGGAGAGAAGATT against Mpzl3 | inactive: -0.941
39 | CCGAAGGAUUGAAGAGCCUTT against Trnt1 | inactive: 0.746
40 | GGCUUAUGUAUGUAAACACTT against Zfp788 | inactive: 0.468
41 | GGCGACAGCUAAGUGUUGGTT against Gprc5a | inactive: -0.0528
42 | GAGGUACUUACAGGUUGUCTT against Mageb1 | inactive: -0.431
43 | GGAGAUGAAUGUUUACAACTT against Sema6a | inactive: 1.24
44 | AUUGGACUUCUACAUGGCUTT against Olfr207 | inactive: 1.43

Records 40 through 41, reprinted for reference:
Row | Sequence | z-score
40 | GGCUUAUGUAUGUAAACACTT against Zfp788 | inactive: 0.468
41 | GGCGACAGCUAAGUGUUGGTT against Gprc5a | inactive: -0.0528

The results go on.

Row | Sequence | z-score
45 | GGGAGAUGAUAAUAUGUAUTT against Pogk | inactive: -1.62
46 | GCUCCAGCUCUGCUUUAAGTT against 4931440P22Rik | inactive: 1.28
47 | GGUACAUGAAGAAAAGUAATT against Lrrc19 | inactive: -0.243
48 | GGAGUGGGAUGAAAUUACATT against Slc35f4 | inactive: -1.5
49 | CGAGCUAUUUACUUUGAUGTT against Gfm1 | inactive: 0.419
50 | GGAGCUCAUGGAAAUCUGUTT against Pfpl | inactive: 0.446
51 | GGACACCUUUCAUCAAAUUTT against Nat3 | inactive: 0.288
52 | GGAGGAUCCACGAUUACUUTT against Ifne | inactive: 1.04
53 | GCACGUGGAUCCUAACAAGTT against Exd1 | inactive: -1.84
54 | GCCGGAUUCUUCAAAAGCUTT against Commd10 | inactive: -1.02
55 | CCUGGAAACAUCAUGUAGUTT against Dctn1 | inactive: -1.23
56 | GUGGCAAAUGCAAAUGCAATT against Fxyd3 | inactive: 1.09
57 | GCGAUAUUUCAAGAGAAGCTT against Evc2 | inactive: -0.372
58 | GGAGCAGAUUGCAUUUGAGTT against Pkdcc | inactive: -0.662
59 | GGCUUGUUGAGCCCUUACATT against 4930412M03Rik | inactive: -0.627
60 | CCACUAAUAGUCGUAGAAUTT against Dand5 | inactive: 0.535
61 | GGUUAGCUACAGAUAUAUUTT against Evi5 | inactive: -0.391
62 | GCCUGAUUGAUAAAGAAAUTT against Ppp1r14c | inactive: -0.0761
63 | CGAUCUUCCAAACCCUCUUTT against Dhh | active: 2.54
64 | GGUUCUCCAGUUUGUCCGATT against Evx2 | inactive: -0.415
65 | CGAGAUCUCACAACUUAUATT against Lca5 | inactive: 1.71
66 | CCGUGGCGUAUGUGAUCAATT against Map3k5 | inactive: -0.249

Row | Sequence | z-score
67 | GGUUCCUACACGAAAGGAUTT against Eif2b4 | inactive: 0.14
68 | GGAAGUGCAAGGUUUACAATT against Rbbp8 | inactive: 0.239
69 | GGUCAAGAUGUCAUUAUGATT against Speg | inactive: -0.53
70 | CCAGUUAAACACAUUAGCCTT against Mxra8 | inactive: -0.373
71 | GCCAUUUACAUUCCCAGGGTT against Vmo1 | inactive: -1.52
72 | GGAUGCUGAGUUUCUGCCATT against Babam2 | inactive: -0.0609
73 | GCACAUUUUACCCAAGGCCTT against Lpar4 | inactive: 0.878
74 | GGCAUUUGUAAUUCCAGUUTT against Spata33 | inactive: 0.456
75 | CCUAUCUUUUCCCUACAUGTT against Cyp4a31 | active: 2.01
76 | CCACGUAGGUAAGUGUAGGTT against Oard1 | inactive: 0.81
77 | GGAUUUGAGGUUUUAGGAATT against Qtrt2 | inactive: -0.0174
78 | GGCAGAUUGUGAAAAAACUTT against Slc9a6 | inactive: -0.503
79 | GGAUAGUUUGGUAAUGAAATT against Cds1 | inactive: -0.748
80 | GCAAGCAGAGAUGUUACAUTT against Olfr1284 | inactive: -0.975
81 | GGCUUUGAGAGGAACACCATT against Sh2d4b | active: -2.49
82 | GCACCAUCGACUAAUCAAATT against 1700029J07Rik | inactive: 1.12
83 | GGUAUCCAGAUGAAAGAUGTT against Nlrp10 | inactive: -1.13
84 | GCAUUAAAGUAGAAGGUCUTT against Snx31 | inactive: 0.812
85 | GGCGUAUGCAGAAUUCUACTT against Cox6c | inactive: -0.0709
86 | GCUUCUGUUCAAAUACUUATT against Tal1 | inactive: 1.02
87 | GGAAGACCCUAAGGACUAUTT against Srpk3 | inactive: -0.269
88 | CCCUAAUUCAUUAGCUAUATT against Dhdds | inactive: 0.111

As entered above.
GGAGCAGAUUGCAUUUGAGTT against Pkdcc | z-score: inactive: -0.662
GGAGAUGAAUGUUUACAACTT against Sema6a | z-score: inactive: 1.24

(listing goes on)

Row | Sequence | z-score
89 | GGUCAUGACAGGAUACCCATT against Fam163b | inactive: -1.99
90 | GGUGUCGACAGGAUGGAAUTT against Adamts7 | inactive: -0.245
91 | GCAGUAAAGCUUGUGUAGGTT against Mpdu1 | inactive: 0.297
92 | GCUGAGUGAAUCCACGUACTT against Mzb1 | active: -2.65
93 | CCACAAGCUUCAAUGACACTT against 6430571L13Rik | inactive: -0.727
94 | GCCAAUUAAUGAUUGCUUUTT against Zfp322a | inactive: 0.945
95 | GGACAAGAAGAAGAAGCGCTT against Micu1 | inactive: -0.546
96 | CGUGGAUCGGAACAGUAUCTT against Lrrc10 | inactive: 0.874
97 | GCUUUAGAGUUCAAUAGUCTT against Zfp592 | inactive: -0.172
98 | GGGCCAUUACAGAGUUUCUTT against Apobec1 | inactive: 0.964
99 | GGCUUUUUGCUUUAGCUUUTT against Cfl1 | inactive: 0.0101
100 | GGCAGAUCGAAGAGAACAATT against Prl8a9 | inactive: 0.528
101 | GCCUAAAUUUAUUCAGGUUTT against Neurod1 | inactive: 0.386
102 | GGCGAAGGAGAAGAAUUAATT against Rhox5 | inactive: 0.352
103 | CGCAAUGGUAAGAAUCACCTT against 9230106D20Rik | inactive: -0.149
104 | GGGAAUCAAAGGCUUUGGGTT against Ms4a1 | inactive: -1.15
105 | GGAAACUGAAAAACAGAGUTT against Xbp1 | inactive: -0.957
106 | GGAACAGCAGUUUUUGUUUTT against Rnf44 | inactive: 0.097
107 | GGUUUAUGCAAUGAAGCUUTT against Rock2 | inactive: -0.0928

Six entries from above, set out differently:
Row	Sequence	z-score
6	GGAACAAAGAGUUUAAGGATT against Olfr1415	inactive: 0.379
7	GCCGUUUAAAACUUGCUAUTT against Trpc6	inactive: 1.47
8	CCAUAAGUGCCCUCGAGAUTT against Krt39	inactive: -1.08
9	CAGCUGAGAUUGAUGGCCATT against Olfr313	inactive: -0.6
10	GGCUUUCGCUGGGCAAAAUTT against Uts2	inactive: -0.691
11	GGAAGAUUUCUUCAAACGCTT against Lhx4	inactive: -0.167
